Laboratory results from PubChem BioAssay AID2685 (National Center for Advancing Translational Sciences (NCATS), 2010).
This is one part of the list. These are further read-outs of the screen, such as a control signal, another cell line or another target. No call is given for them. Compounds called inactive in the main read-out are mostly missing here. Potencies come from curve fits of mixed quality, noted in brackets.

Assay: qHTS Assay for Lipid Storage Modulators in Drosophila S3 Cells;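 on cell number change: cells counted by Cell Tracker Red CMTPX staining in the red channel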
Conditions: BODIPY lipid droplet fluorescence, 18-24 h; for cell number change: measured here: cell count max response, cells fed with added oleic acid
Summary of the method: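 Drosophila S3 cells loaded with oleic acid (400 uM, as added) and compounds at several concentrations; lipid droplets imaged by 488-nm laser-scanning cytometry, 500–530 nm intensity and object ratio to cell channel. Percent activity normalized to 20 uM Triacsin C.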

[1] = measured here: lipid fluorescence (Fed channel) AC50, cells fed with added oleic acid
[2] = measured here: cell number channel AC50, cells fed with added oleic acid

SMILES	cell number change [%]	AC50 [1]	AC50 [2]
Cc1nc(C)c(-c2csc(Nc3ccc(O)cc3C)n2)s1	-6.67	18.4 µM [rising, single point]	
CC(=O)c1c(C)cc(C)c(CSc2nc(C)cc(=O)[nH]2)c1C	1.28	29.1 µM [rising, single point]	
COc1ccc2c(OC)c3ccoc3nc2c1OC	5.87	8.2 µM [falling, partial curve]	
O=C1NC(Nc2nc3ccccc3s2)(C(F)(F)F)C(=O)N1C1CCCCC1 (centres undefined)	-62	13 µM [falling, partial curve]	25.9 µM [falling, partial curve, poor fit]
Fc1ccccc1N1CCN(C2CCCN(Cc3cccc(C(F)(F)F)c3)C2)CC1 (centres undefined)	-26.3		
O=C(Nc1ccc(F)cc1Cl)C1CCN(C(=O)Nc2ccccc2)CC1	5.92	29.1 µM [rising, single point]	
CC(=O)Nc1nc(C)c(Oc2cccc(C(F)(F)F)c2)c(=O)[nH]1	5.51		
O=C(c1ccc(F)cc1)N(NC(=O)C(O)(c1ccccc1)c1ccccc1)c1ccccc1	-5.12		0.13 µM [rising, full curve, poor fit]
CCOc1ccccc1N1CC(C(=O)N(C)Cc2cccnc2)CC1=O (centres undefined)	22.2	20.6 µM [falling, partial curve, poor fit]	
C=CCn1cc(C(=O)NCCOC)c(=O)c2cc(S(=O)(=O)N3CCCCCC3)ccc21	25.2	4.61 µM [falling, single point]	
CCOc1ccc(NC(=O)CNc2ccc(C)cc2Cl)cc1	68.2		20.6 µM [rising, partial curve]
CC1(C)CC(=O)C2=C(C1)OC(/N=C/N1CCOCC1)=C(C#N)C2c1ccccc1 (centres undefined)	42.9	3.66 µM [rising, single point]	7.31 µM [rising, partial curve, poor fit]
CCCN1CCN(S(=O)(=O)c2ccc(OC)c(Br)c2)CC1	-11		
CN(CC(=O)Nc1cccc(F)c1)C(=O)Cn1c(=O)oc2ccccc21	-19	0.291 µM [falling, partial curve, poor fit]	
COc1cnn(Cc2ccccc2)c(=O)c1SCc1ccccc1	-1.45	0.0231 µM [falling, full curve, poor fit]	
COc1cc(NC(=O)CSCC(=O)N(C)C2CCCCC2)cc(OC)c1	-56.5	1.46 µM [falling, full curve]	13 µM [falling, partial curve]
c1ccc(C(c2nnnn2C2CCCCC2)N2CCc3ccccc3C2)nc1 (centres undefined)	-12.5	0.366 µM [rising, full curve, poor fit]	4.11 µM [rising, single point]
CC(=O)c1ccc(NC(=S)N2CCCCCC2)cc1	-22.4	14.1 µM [falling, partial curve, poor fit]	
CCCCN(C(=S)Nc1ccc(F)cc1)c1c(N)n(CCC)c(=O)[nH]c1=O	0.683		
O=C(Nc1ccn(Cc2ccccc2)n1)c1n[nH]c([N+](=O)[O-])c1Cl	2.07	0.00411 µM [rising, full curve, poor fit]	

2 compounds picked at random from the list so far:
SMILES	cell number change [%]	AC50 [1]	AC50 [2]
O=C(Nc1ccc(F)cc1Cl)C1CCN(C(=O)Nc2ccccc2)CC1	5.92	29.1 µM [rising, single point]	
CCCN1CCN(S(=O)(=O)c2ccc(OC)c(Br)c2)CC1	-11		

(next part)

SMILES	cell number change [%]	AC50 [1]	AC50 [2]
CC(C)(C)OC(=O)N[C@@H](Cc1ccccc1)C(=O)NCC1CCC(C(=O)O)CC1 (some centres undefined)	-27.2		
CCCCN(C)CCOc1ccccc1OCC			6.51 µM [rising, single point]
CCOC(=O)c1ccc2c(c1)N(C)C(=O)c1ccccc1S2	1.11		
Cc1[nH]nc(-c2ccc(O)c(C)c2O)c1Oc1ccccc1	-72.9		1.16 µM [falling, full curve]
COc1cc(C(=O)NC2=NCCS2)ccc1OCc1c(C)noc1C	-12.3		
CCOC(=O)C1=C(c2ccccc2)NC(SCC(=O)Nc2ccccc2C)=C(C#N)C1c1ccco1 (centres undefined)		0.164 µM [rising, full curve, poor fit]	
CCOc1ccc(/C=N/NC(=O)CNC(=O)c2ccc(S(=O)(=O)N3CCOCC3)cc2)cc1	10.2	0.00461 µM [falling, full curve]	
O=C(N[C@@H](Cc1c[nH]c2ccccc12)C(=O)O)OCC1c2ccccc2-c2ccccc21	3.74		
COc1ccc(-c2oc3ccccc3c2C#CC(C)(C)O)cc1	-71.6	0.184 µM [rising, full curve, poor fit]	4.11 µM [falling, partial curve]
O=C(O)C(c1ccccc1)C1(O)CCCC1 (centres undefined)	1.82	3.26 µM [falling, full curve]	
CCCOc1cccc(-c2cc(C(=O)N/N=C/c3cccnc3)c3ccccc3n2)c1	-0.867	20.6 µM [falling, single point]	
COC(=O)c1ccc(NC(=O)COC(=O)COc2cccc3c2OC(C)(C)C3)cc1	-27.6	6.51 µM [falling, single point]	
O=C(CCN1C(=O)C2CC=CCC2C1=O)Nc1nc(-c2ccc(F)c(F)c2)cs1 (centres undefined)	-29.5		
CC(NC(=O)C1CCN(S(=O)(=O)c2cc([N+](=O)[O-])ccc2Cl)CC1)c1ccccc1 (centres undefined)	-7.12	0.58 µM [rising, single point]	
CCCc1cc(=O)[nH]c(Nc2ccc3c(c2)OCCO3)n1	12.2	4.11 µM [rising, single point]	
CC(C)CCn1c(SCC(=O)NC2CC2)nc2cc(Cl)ccc2c1=O	-4.48		
CC(/C=N/NC(=O)Cc1cccn1C)=C\c1ccco1	-33.3		0.116 µM [falling, full curve]
O=C(CN(C(=O)C1CSC(=O)C1)c1ccccc1F)NCc1ccc2c(c1)OCO2 (centres undefined)	15	2.91 µM [rising, partial curve]	
CC(=O)c1sc(NC(=O)C2(F)C(F)(F)C(F)(F)C(F)(F)C(F)(F)C2(F)F)nc1C	-68.6	5.8 µM [falling, full curve]	25.9 µM [falling, partial curve, poor fit]
CSc1ccccc1NC(=O)c1ccc(N2CCCC2=O)cc1	-2.72	0.116 µM [rising, full curve, poor fit]	
